Laboratory results reported in patent US6174875A, “Benzoquinoid ansamycins for the treatment of cardiac arrest and stroke” (priority 1999, dated 2001).
At least one structure is not confirmed: it was looked up by name or label, or the drawing left a doubt.

What was measured:
HT22 cells = conditions: cited from earlier work
hsp70 in HT22 cells = test: Western blot of inducible hsp70 expression in HT22 cells; assay type: cell-based, mouse; conditions: 5 mM glutamate
Description: Cells were harvested and lysed by sonication in 0.25 M Tris-HCl, pH 7.5 and lysates clarified by centrifugation at 14,000 rpm for 10 minutes at 4 ° C. Equivalent amounts of lysate protein (5 μg) were used for Western blot analysis as described by Xiao et al. (1997) Mol. Endocrinol. 11: 1365. The inducible form of the 70 kDa heat shock protein, hsp70, was uniquely detected using the SPA-810 monoclonal antibody (StressGen). GA induction of hsp70 was evident within 3 hours of GA treatment, was maximal upon 9 hours of GA treatment, and persisted for at least 12 hours in the presence of GA.

N[C@@H](CCC(=O)O)C(=O)O [glutamate]
neuronal 12-lipoxygenase in glutamate-treated HT22 cells (HT22 cells): activation of neuronal 12-lipoxygenase | hsp70 induction by glutamate (hsp70 in HT22 cells): hsp70 was not induced
